Patent publication US6979673
No constants are given. Whether binding was seen depends on the method and setting. Binding seen in cells or lysates may run through a third protein. Some results given as binding are weak or reduced against the parent protein; the word gives no strength.

The chains behind the UniProt entries cited, without tags or fusion partners. Where a name states a change or a piece, a line headed by the entry shows the natural chain unless it says otherwise. Residues count along the entry.
UniProt P01236, residues 29-227: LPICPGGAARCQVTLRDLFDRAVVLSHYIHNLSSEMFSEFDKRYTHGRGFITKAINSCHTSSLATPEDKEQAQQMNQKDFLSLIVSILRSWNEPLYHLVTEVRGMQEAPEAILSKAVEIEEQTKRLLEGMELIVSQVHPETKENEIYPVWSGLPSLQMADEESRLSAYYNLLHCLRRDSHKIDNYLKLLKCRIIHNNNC
UniProt P23284: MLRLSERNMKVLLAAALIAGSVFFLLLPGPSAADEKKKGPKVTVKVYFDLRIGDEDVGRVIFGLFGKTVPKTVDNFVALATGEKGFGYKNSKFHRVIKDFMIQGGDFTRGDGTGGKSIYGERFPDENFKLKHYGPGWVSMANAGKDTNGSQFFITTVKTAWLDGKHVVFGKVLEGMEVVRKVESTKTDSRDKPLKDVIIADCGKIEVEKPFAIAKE

How the values were obtained:
[1] = target: PRL (human prolactin, untagged or form not specified: serum PRL; PRL added to cell cultures) (human) (UniProt P01236); assay: co-immunoprecipitation from human serum
[2] = target: PRL (human prolactin, untagged or form not specified: serum PRL; PRL added to cell cultures) (human) (UniProt P01236); assay: pull-down of serum PRL on sepharose-conjugated CypB
[3] = target: PRL (human prolactin, untagged or form not specified: serum PRL; PRL added to cell cultures) (human) (UniProt P01236); assay: co-immunoprecipitation of nuclear complexes, T47D cells

binding [1] | binding [2] | binding [3] | Substance
binds | – | – | CypB from human serum (endogenous) (from UniProt P23284 34-216) (enzyme)
– | binds | binds | His-tagged CypB (cyclophilin B, recombinant, V5/His-tagged, from Drosophila S2 cells) (from UniProt P23284 34-216) (enzyme)
